Test results taken from article PMC5996148.
Where “and” joins values, the source holds several entries; their conditions need not be identical. Equal entries are not always repeated. The list shows a part of the results. For some assays here: The exact form of the protein is not confirmed.

Protein sequences, listed by entry. Tags and fused reporters are not part of them. Lines headed by an entry give the natural chain unless they say otherwise; changes in a name come on top.
UniProt Q13093: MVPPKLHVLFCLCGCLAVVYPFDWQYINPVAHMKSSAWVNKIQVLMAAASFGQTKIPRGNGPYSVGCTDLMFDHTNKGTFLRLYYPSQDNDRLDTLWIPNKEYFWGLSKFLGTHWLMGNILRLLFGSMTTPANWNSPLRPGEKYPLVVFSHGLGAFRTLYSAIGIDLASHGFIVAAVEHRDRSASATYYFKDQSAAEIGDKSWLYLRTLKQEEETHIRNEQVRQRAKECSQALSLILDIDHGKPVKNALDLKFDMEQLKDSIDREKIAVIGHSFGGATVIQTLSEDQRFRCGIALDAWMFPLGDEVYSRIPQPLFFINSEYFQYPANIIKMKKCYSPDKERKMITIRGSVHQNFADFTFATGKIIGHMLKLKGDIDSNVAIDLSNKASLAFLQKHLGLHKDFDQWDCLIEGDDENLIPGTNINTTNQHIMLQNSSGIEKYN
UniProt O60568: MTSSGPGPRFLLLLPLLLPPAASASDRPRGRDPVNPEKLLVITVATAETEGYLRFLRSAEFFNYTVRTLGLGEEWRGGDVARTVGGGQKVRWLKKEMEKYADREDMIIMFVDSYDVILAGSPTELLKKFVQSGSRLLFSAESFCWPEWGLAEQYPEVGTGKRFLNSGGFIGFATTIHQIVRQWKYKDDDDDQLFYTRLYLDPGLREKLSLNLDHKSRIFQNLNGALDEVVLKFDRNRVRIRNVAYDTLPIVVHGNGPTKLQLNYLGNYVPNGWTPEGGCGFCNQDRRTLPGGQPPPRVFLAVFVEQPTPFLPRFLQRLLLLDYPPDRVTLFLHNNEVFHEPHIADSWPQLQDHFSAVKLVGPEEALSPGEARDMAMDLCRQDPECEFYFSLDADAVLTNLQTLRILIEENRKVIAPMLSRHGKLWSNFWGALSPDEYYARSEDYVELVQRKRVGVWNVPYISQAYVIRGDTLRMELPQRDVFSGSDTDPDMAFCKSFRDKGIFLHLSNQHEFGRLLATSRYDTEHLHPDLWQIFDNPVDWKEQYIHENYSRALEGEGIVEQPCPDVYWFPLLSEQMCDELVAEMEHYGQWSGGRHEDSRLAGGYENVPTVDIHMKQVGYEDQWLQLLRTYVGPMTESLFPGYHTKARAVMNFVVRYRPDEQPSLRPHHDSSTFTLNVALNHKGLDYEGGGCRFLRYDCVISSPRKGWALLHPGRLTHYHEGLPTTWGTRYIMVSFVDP
UniProt Q9Y2G5: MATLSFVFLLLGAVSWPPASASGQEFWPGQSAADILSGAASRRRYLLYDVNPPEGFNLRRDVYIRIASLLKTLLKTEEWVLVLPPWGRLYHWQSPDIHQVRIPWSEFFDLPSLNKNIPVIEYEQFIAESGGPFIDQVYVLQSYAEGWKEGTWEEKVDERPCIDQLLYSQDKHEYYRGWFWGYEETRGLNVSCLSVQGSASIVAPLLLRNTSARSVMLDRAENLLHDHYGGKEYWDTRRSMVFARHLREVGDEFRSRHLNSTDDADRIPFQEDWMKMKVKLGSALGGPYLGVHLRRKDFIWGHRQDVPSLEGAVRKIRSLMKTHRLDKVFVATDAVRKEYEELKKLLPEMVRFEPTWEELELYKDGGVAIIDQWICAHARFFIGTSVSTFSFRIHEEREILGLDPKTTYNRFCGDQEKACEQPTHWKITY

Legend:
Assay in all cases: protein microarray (ProtoArray v5.0), streptavidin-Alexa Fluor 647
Details in all cases: 3'-biotin; 20 mM Tris (pH 7.5), 5 mM MgCl2, 100 mM KCl, 0.1% Tween-20, A/T-rich and random oligonucleotide blockers; temperature not stated; high values mean tight binding
PLA2G7 = PLA2G7 (UniProt Q13093)
PLB1 (human) = test system: PLB1 (human)
PLD3 (human) = test system: PLD3 (human)
PLEKHA3 (human) = test system: PLEKHA3 (human)
PLEKHG5 (human) = test system: PLEKHG5 (human)
PLG (human) = test system: PLG (human)
PLOD3 = PLOD3 (UniProt O60568)
PLS3 (human) = test system: PLS3 (human)
PLXDC1 (human) = test system: PLXDC1 (human)
PMCH (human) = test system: PMCH (human)
PMP70 (human) = test system: PMP70 (human)
PNMA1 (human) = test system: PNMA1 (human)
PNMT = biological target: T1, PNMT (UniProt P11086)
T1 sequence: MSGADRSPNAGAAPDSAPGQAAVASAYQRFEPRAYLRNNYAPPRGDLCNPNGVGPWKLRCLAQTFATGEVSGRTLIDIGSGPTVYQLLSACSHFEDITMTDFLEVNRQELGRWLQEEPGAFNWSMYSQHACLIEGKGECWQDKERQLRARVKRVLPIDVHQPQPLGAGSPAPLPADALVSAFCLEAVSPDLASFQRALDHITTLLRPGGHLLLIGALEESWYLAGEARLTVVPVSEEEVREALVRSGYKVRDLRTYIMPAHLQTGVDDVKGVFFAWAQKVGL

PNPLA2 (human) = test system: PNPLA2 (human)
PNPLA3 (human) = test system: PNPLA3 (human)
PNPO (human) = test system: PNPO (human)
PNPT1 (human) = test system: PNPT1 (human)
POFUT1 (human) = test system: POFUT1 (human)
POFUT2 = POFUT2 (UniProt Q9Y2G5)
POLA2 (human) = test system: POLA2 (human)

GGGAGGCTGAGGCAGG [G4-1 biotinylated (PQS2)]
binding signal (PLA2G7): -0.319 z-score
binding signal (PLB1 (human)): -0.313 z-score
binding signal (PLD3 (human)): -0.31 z-score
binding signal (PLEKHA3 (human)): -0.302 z-score
binding signal (PLEKHG5 (human)): -0.278 z-score
binding signal (PLG (human)): -0.27 z-score and -0.249 z-score
binding signal (PLOD3): -0.31 z-score
binding signal (PLS3 (human)): -0.349 z-score
binding signal (PLXDC1 (human)): -0.336 z-score
binding signal (PMCH (human)): -0.339 z-score
binding signal (PMP70 (human)): -0.32 z-score
binding signal (PNMA1 (human)): -0.338 z-score
binding signal (PNMT): -0.31 z-score
binding signal (PNPLA2 (human)): -0.309 z-score
binding signal (PNPLA3 (human)): -0.291 z-score
binding signal (PNPO (human)): -0.319 z-score
binding signal (PNPT1 (human)): -0.234 z-score
binding signal (POFUT1 (human)): -0.308 z-score
binding signal (POFUT2): -0.286 z-score
binding signal (POLA2 (human)): -0.337 z-score
